The other results are listed elsewhere or left out.
What was measured:
Assay in all cases: log2 fold change, soluble protein after heating vs DMSO (PISA); higher = thermal stabilisation; K562 cells, 10 uM, 30 min; active = over 0.2 and 3.5 SD of the protein, either way, in both replicates (recomputed)
erlotinib = compound: C#Cc1cccc(Nc2ncnc3cc(OCCOC)c(OCCOC)cc23)c1 [erlotinib]
In short: (§1)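 For each measurement, 10 μM compound was applied for 30 min to K562 cells at 2×10^6 cells/mL. Aliquots were heated for 3 min across 48°C-58°C, pooled, and extracted in PBS with 0.5% NP-40 at 4°C; the supernatant after 21,000xg for 90 min was soluble protein. This was quantified by TMTpro 16plex LC-MS/MS with channel sums equalised, and thermal stability was reported relative to control samples from duplicates, on a log2 fold-change scale.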

The chains behind the UniProt entries cited, without tags or fusion partners. Where a name states a change or a piece, a line headed by the entry shows the natural chain unless it says otherwise.
UniProt Q99729: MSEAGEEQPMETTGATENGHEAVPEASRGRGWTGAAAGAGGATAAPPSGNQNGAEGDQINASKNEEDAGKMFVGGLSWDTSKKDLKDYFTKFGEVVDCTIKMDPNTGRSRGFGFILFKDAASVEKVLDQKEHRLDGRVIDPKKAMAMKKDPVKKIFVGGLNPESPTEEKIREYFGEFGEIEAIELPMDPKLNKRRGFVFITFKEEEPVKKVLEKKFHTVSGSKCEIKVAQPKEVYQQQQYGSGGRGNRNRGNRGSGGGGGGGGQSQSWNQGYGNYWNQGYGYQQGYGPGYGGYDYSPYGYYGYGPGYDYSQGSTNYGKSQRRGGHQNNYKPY
UniProt Q00613: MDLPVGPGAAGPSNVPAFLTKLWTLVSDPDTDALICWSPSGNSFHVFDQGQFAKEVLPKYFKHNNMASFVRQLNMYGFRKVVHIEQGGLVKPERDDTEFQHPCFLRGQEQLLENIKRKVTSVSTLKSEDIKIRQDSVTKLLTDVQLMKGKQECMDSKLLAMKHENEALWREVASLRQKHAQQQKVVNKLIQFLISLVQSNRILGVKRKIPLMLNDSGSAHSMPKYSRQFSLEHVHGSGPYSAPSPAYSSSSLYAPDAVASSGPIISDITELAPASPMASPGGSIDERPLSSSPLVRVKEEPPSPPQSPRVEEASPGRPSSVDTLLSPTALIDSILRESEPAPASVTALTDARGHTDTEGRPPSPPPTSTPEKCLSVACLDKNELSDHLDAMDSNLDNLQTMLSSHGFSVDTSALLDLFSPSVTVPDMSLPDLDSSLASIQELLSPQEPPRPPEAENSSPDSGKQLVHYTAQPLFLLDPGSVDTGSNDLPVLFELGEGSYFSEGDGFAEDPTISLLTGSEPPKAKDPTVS
UniProt Q7LGA3: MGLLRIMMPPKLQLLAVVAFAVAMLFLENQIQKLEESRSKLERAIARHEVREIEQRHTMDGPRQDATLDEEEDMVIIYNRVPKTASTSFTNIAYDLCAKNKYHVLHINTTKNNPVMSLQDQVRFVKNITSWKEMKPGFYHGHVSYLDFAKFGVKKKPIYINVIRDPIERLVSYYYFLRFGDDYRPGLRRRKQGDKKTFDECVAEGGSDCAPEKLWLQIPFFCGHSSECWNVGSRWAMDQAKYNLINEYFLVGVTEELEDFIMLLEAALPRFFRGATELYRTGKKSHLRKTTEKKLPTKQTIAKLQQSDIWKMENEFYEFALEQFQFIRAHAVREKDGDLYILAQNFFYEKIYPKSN
UniProt Q8IWL3: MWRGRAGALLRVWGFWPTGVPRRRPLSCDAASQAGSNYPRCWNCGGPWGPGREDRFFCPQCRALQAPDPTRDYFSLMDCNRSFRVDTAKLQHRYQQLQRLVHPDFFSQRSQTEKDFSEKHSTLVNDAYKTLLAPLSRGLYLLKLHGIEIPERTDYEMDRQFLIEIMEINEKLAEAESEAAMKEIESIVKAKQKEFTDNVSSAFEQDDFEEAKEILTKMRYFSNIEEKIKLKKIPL
UniProt P54652, whole entry, looked up: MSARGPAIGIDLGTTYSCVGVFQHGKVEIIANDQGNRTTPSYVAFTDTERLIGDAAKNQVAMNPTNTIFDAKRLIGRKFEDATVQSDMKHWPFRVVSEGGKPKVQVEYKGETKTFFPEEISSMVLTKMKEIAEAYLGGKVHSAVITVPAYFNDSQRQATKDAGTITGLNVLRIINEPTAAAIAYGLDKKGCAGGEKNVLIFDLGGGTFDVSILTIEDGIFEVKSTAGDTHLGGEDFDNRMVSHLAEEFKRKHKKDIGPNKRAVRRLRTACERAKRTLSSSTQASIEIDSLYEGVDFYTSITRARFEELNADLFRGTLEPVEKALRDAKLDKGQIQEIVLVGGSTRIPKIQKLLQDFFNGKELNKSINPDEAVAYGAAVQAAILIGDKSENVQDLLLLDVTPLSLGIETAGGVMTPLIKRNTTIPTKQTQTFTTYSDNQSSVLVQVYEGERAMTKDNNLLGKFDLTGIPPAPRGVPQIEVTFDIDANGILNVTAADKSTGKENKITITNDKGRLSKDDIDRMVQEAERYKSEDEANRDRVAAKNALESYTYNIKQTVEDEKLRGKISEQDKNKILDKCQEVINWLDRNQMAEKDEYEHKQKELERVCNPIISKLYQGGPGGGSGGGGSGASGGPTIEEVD
UniProt Q92598: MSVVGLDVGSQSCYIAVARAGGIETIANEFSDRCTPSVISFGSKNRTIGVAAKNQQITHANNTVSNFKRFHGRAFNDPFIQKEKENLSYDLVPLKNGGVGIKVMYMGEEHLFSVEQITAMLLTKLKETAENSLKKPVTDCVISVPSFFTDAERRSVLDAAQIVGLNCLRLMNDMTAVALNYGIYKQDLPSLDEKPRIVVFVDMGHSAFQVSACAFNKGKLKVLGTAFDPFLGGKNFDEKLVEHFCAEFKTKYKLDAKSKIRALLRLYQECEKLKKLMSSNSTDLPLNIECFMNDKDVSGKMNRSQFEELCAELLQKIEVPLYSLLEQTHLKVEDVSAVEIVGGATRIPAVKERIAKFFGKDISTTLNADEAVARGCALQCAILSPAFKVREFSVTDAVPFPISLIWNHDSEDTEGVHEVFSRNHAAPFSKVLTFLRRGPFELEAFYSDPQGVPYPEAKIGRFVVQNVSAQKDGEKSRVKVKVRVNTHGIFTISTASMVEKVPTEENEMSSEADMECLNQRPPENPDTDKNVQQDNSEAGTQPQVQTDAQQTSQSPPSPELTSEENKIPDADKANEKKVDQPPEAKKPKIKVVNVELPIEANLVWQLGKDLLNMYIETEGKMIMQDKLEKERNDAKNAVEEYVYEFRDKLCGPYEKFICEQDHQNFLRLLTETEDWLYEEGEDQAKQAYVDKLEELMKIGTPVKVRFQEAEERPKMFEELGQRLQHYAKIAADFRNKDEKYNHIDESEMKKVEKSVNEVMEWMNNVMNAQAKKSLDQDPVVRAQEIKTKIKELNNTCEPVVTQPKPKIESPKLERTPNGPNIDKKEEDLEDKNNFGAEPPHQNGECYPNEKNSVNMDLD
UniProt P19367: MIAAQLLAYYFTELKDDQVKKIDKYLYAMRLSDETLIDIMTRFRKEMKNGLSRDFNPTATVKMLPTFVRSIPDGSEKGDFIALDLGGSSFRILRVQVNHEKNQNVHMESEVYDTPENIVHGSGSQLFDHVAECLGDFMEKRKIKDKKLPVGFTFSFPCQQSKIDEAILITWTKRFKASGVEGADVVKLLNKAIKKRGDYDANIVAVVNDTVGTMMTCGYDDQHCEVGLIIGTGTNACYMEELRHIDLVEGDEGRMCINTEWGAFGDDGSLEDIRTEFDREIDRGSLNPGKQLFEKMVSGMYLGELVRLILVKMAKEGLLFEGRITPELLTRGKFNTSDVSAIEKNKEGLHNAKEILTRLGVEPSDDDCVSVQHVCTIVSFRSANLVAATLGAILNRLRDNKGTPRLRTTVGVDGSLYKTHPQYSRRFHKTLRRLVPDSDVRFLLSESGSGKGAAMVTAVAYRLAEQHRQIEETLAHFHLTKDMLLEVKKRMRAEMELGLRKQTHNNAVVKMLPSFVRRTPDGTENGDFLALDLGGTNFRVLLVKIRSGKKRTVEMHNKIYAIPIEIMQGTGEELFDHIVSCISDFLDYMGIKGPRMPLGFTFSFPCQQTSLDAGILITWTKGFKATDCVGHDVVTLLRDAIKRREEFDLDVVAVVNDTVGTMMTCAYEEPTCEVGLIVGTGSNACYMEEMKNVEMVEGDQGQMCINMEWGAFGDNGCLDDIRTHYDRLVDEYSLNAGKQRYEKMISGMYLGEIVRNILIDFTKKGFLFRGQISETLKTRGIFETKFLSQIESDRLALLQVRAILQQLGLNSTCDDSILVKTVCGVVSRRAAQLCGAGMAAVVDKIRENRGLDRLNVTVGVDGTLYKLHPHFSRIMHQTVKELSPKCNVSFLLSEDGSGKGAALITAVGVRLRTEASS
UniProt Q14527: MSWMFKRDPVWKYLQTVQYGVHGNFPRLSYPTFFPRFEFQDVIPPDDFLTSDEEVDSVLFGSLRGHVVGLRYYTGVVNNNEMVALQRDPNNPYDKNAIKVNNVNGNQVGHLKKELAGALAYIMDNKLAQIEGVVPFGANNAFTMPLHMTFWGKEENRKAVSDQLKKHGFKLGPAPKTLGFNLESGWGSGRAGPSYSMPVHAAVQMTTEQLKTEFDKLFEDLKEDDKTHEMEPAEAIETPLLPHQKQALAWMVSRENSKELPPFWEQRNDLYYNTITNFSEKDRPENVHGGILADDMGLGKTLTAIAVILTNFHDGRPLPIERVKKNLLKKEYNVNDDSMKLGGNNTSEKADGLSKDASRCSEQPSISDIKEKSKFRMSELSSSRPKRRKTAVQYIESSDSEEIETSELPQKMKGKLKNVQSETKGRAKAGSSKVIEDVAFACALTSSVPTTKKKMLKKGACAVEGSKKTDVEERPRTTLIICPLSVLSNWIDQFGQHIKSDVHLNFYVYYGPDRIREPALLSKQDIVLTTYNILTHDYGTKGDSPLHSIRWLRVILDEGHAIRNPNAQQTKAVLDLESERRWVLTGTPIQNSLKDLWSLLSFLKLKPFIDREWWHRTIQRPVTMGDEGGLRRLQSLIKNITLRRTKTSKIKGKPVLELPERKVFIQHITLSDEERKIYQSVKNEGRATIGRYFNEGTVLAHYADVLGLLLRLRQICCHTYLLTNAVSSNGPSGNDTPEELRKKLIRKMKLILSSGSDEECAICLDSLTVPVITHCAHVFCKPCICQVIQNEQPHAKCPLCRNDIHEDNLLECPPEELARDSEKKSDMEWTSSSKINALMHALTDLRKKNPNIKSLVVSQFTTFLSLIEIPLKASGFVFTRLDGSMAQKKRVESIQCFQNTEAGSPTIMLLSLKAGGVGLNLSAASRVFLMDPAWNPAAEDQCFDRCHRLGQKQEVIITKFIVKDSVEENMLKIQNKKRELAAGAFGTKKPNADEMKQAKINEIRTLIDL
UniProt Q13151: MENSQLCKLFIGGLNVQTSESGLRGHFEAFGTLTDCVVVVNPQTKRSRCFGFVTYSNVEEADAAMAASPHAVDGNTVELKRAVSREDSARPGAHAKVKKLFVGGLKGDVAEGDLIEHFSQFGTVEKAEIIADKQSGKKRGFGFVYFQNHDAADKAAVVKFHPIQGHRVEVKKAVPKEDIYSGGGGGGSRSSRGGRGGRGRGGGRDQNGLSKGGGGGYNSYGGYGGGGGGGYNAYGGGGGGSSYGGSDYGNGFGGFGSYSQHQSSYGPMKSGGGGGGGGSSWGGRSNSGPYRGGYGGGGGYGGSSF
UniProt Q58FF6, whole entry, looked up: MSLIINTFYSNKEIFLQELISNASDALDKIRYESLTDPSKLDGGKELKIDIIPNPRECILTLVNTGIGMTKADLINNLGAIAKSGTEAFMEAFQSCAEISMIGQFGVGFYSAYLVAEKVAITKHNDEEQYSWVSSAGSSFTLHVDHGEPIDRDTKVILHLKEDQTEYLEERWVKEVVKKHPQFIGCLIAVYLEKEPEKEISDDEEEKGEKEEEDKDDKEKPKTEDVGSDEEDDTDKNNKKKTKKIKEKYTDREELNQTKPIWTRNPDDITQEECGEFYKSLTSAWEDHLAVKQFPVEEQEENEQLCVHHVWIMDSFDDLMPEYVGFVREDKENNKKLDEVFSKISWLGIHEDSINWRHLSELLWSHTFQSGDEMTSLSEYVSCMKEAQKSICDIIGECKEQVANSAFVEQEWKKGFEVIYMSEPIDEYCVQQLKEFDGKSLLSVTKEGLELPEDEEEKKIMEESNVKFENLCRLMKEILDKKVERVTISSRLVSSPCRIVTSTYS
UniProt P22626: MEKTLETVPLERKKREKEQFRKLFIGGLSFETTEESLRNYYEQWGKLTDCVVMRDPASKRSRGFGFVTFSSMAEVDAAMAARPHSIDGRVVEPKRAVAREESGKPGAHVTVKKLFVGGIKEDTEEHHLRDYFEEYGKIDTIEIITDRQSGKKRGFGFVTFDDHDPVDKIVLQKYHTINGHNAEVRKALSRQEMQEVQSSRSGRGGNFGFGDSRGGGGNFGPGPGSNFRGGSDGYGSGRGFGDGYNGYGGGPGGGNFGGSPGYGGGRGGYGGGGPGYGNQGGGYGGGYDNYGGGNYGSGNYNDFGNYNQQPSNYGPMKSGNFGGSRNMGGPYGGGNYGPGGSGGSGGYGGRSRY

[1] = compound: C/C(=N\NC(=O)C1=CC(=CC=C1)S(=O)(=O)N2CCOCC2)/C3=C(C=CC(=C3)Cl)O
In short: as §1

[2] = compound: C1=CC(=C(C=C1Cl)C2=NC3=NC=CN=C3C(=N2)NC4=CC=NC=C4)F
In short: as §1

[3] = compound: C1=CC(=CC=C1C2=NC3=C(N2)C=C(C=C3)C(=O)N)OC4=CC=C(C=C4)Cl
In short: as §1

[4] = compound: C1=CC2=C(C=CC(=C2)/C=C\3/C(=O)NC(=NCC4=CC=CS4)S3)N=C1
In short: as §1

[5] = compound: C1=CC2=NC=CN=C2C=C1/C=C/3\C(=O)NC(=O)S3
In short: as §1

[6] = compound: C1=CC=C(C=C1)C2=NC(=C(N2)C3=CC=NC=C3)C4=CC(=C(C=C4)Cl)O
In short: as §1

[7] = compound: C1=CC=C2C(=C1)C3=NNC4=CC=CC(=C43)C2=O
In short: as §1

[8] = compound: C1CCN(C1)C(=O)NC2=CC=CC(=C2)NC3=NC=C(C(=N3)NCCC4=CN=CN4)Br
In short: as §1

[9] = compound: C1CN(CCC1(CC2=CC=C(C=C2)Cl)N)C3=NC=NC4=C3C=CN4
In short: as §1

Measured: log2 fold change

HNRNPAB isoform 3 (UniProt Q99729)
inactive: erlotinib -0.093 | [1] -0.162 | [2] -0.253 | [3] -0.005 | [4] -0.064 | [5] 0.025 | [6] -0.1 | [7] -0.008 | [8] 0.086 | [9] -0.092

HSF1 (UniProt Q00613)
inactive: erlotinib 0.073 | [1] 0.014 | [2] 0.053 | [3] -0.091 | [4] 0.162 | [5] 0.03 | [7] 0.057 | [8] -0.071 | [9] 0.045

HIST2H3A (UniProt Q71DI3)
inactive: erlotinib 0.113 | [1] -0.114 | [2] -0.305 | [3] -0.028 | [4] 0.011 | [5] 0.221 | [6] 0.047 | [7] -0.004 | [8] 0.287 | [9] -0.378

HS2ST1 (UniProt Q7LGA3)
inactive: erlotinib 0.018 | [1] -0.057 | [2] -0.091 | [3] -0.008 | [4] 0.023 | [5] -0.004 | [6] -0.078 | [7] 0.024 | [8] 0.009 | [9] 0.012

HSCB (UniProt Q8IWL3)
inactive: erlotinib 0.132 | [1] 0.093 | [2] 0.066 | [3] -0.149 | [4] 0.071 | [6] 0.02 | [7] -0.017 | [8] 0.019 | [9] 0.04

HSPA2 (UniProt P54652)
inactive: erlotinib 0.623 | [1] -0.047 | [3] -0.182 | [4] 0.022 | [5] 0.058 | [6] -0.095 | [7] 0.192

HSPH1 (UniProt Q92598)
inactive: erlotinib 0.009 | [1] 0.05 | [2] 0.038 | [3] -0.032 | [4] -0.037 | [5] -0.006 | [6] 0.045 | [7] 0.006 | [8] -0.002 | [9] -0.027

HK1 isoform 2 (UniProt P19367)
inactive: erlotinib 0.014 | [1] -0.004 | [2] 0.032 | [3] -0.005 | [4] 0.012 | [5] 0.017 | [6] -0.027 | [7] -0.016 | [8] 0.003 | [9] 0.03

HLTF (UniProt Q14527)
inactive: erlotinib -0.005 | [1] 0.018 | [2] 0.068 | [3] 0.039 | [4] 0.034 | [5] -0.067 | [6] -0.009 | [7] 0.044 | [8] -0.016 | [9] -0.011

HNRNPA0 (UniProt Q13151)
inactive: erlotinib -0.105 | [1] -0.112 | [2] -0.374 | [3] 0.171 | [4] 0.04 | [5] 0.072 | [7] -0.055 | [8] -0.025 | [9] 0.057

HSP90AB4P (UniProt Q58FF6)
inactive: erlotinib 0.168 | [1] 0.1 | [2] -0.098 | [3] 0.113 | [4] 0.015 | [5] 0.081 | [7] 0.141 | [8] -0.152 | [9] -0.077

HNRNPA2B1 (UniProt P22626)
inactive: erlotinib -0.134 | [1] -0.116 | [2] -0.532 | [3] 0.015 | [4] -0.109 | [5] 0.087 | [6] -0.089 | [7] -0.015 | [8] 0.09 | [9] -0.092
